Results as given in PMC6884552, “Glycogen branching enzyme controls cellular iron homeostasis via Iron Regulatory Protein 1 and mitoNEET” (Nature Communications, 2019).

Biological target: T1, Drosophila IRP1B in larvae (endogenously Flag-tagged IRP1B^3F as bait; endogenous IRP1B as prey) (Drosophila (endogenous in larvae)) (UniProt Q9VGZ3)
T1 sequence: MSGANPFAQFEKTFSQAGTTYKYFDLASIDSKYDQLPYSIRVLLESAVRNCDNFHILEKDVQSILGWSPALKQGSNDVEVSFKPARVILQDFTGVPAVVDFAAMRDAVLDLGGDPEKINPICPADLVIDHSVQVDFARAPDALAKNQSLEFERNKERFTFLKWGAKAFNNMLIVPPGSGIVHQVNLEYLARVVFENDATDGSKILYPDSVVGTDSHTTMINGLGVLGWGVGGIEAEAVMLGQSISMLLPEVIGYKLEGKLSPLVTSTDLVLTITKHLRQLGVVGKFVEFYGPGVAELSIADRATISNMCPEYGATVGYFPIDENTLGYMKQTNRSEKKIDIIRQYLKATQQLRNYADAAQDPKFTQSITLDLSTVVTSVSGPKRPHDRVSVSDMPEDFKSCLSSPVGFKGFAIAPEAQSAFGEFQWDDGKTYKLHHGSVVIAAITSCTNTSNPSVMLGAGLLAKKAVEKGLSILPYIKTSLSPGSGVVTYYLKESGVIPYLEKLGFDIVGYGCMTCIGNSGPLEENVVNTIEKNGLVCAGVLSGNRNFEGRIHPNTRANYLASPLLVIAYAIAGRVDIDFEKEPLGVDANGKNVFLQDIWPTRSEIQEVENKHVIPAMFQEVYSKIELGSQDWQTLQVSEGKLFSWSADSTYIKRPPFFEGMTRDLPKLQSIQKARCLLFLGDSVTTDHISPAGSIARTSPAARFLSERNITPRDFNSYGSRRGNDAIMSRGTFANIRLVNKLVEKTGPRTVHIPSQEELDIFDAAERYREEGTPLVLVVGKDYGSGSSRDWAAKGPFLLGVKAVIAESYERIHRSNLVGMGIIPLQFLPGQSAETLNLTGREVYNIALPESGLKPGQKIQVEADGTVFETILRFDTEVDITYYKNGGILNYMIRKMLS
Assay: affinity purification with mass spectrometry; whole-body L3 larvae with Flag-tagged knock-in alleles (AGBE^FCF, IRP1A^3F, IRP1B^3F) on regular food (IRP1A^3F also after one or two generations on BPS food); 0.2% formaldehyde cross-linking in vivo; anti-Flag M2 affinity gel, 2 h, 4 °C; proteins found in untagged controls removed

B1: HA-tagged Drosophila Cisd2 (natural protein, UniProt Q9VAM6 1-133, looked up)
chain: MEPISHLVKSSLPNYLSSLPVPDSIGGWFKLSFKDWLALIPPTVVVAGLGYTAYLAYCPAARASCAAKNSGRCNNHIRKNEPKVVDMIDVEDIAEKAAFCRCWKTKNWPYCDGSHGEHNKQTGDNVGPIVIKK
notes: Drosophila Cisd2, cDNA RE49709; also called mitoNEET; Cisd2/mitoNEET; source: S2 cells, transfected, in lysate
binding: no binding

No constants are given. Whether binding was seen depends on the method and setting. Binding seen in cells or lysates may run through a third protein. These calls come from enrichment with a bait or labelling near it, and not all partners need be listed. No binding means not detected with the bait. Tags and fused reporters may be left off the sequences shown.
